Test results from publication PMC3657149, “Mig6 Is a Sensor of EGF Receptor Inactivation that Directly Activates c-Abl to Induce Apoptosis during Epithelial Homeostasis” (Developmental Cell, 2012).
Results are given in words; binding and its absence hold for the method and conditions named. In cells and extracts the contact can be indirect. Some entries that bind do so weakly or less than the wild type.

Amino acid sequences for entries named in this document (tags omitted).
UniProt P00520: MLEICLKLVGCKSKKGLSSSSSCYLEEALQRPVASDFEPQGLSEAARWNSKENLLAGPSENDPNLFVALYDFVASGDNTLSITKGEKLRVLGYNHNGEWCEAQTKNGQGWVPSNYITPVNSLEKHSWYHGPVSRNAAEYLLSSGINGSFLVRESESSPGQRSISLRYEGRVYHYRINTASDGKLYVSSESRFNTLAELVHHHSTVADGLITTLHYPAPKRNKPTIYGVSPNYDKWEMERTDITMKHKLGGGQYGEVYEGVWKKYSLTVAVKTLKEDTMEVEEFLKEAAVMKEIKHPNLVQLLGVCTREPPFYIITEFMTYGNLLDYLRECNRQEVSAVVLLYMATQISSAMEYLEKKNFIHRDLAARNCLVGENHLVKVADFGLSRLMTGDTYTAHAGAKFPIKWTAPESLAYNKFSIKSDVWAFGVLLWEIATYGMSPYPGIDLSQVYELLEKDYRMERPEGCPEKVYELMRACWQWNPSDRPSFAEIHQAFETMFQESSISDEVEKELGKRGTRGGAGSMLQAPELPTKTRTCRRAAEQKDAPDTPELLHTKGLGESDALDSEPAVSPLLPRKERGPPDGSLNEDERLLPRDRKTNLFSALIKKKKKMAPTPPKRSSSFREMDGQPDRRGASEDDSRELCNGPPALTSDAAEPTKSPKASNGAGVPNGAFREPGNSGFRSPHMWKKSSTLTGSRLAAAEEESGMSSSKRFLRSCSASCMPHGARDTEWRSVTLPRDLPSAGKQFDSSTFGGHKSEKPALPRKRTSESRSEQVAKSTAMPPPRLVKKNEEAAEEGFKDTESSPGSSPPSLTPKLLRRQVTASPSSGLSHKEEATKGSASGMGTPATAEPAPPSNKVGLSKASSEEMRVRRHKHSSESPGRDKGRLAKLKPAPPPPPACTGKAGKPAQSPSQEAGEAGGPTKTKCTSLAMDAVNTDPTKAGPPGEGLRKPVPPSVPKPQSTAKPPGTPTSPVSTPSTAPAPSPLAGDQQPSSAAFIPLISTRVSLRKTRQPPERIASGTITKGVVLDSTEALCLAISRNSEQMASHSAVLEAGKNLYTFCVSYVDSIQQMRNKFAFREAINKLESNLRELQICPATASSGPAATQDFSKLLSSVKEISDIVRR

Assays:
[1] = biological target: T1, Mig6, endogenous in primary mammary epithelial cells (mouse (endogenous in pMECs)) (UniProt Q99JZ7); test: condition: only pMECs cultured in the absence of EGF for 2 hr; co-IP; endogenous Mig6 immunopurified from pMECs cultured in the absence of EGF for 2 hr; immunoblotting for EGFR
T1 sequence: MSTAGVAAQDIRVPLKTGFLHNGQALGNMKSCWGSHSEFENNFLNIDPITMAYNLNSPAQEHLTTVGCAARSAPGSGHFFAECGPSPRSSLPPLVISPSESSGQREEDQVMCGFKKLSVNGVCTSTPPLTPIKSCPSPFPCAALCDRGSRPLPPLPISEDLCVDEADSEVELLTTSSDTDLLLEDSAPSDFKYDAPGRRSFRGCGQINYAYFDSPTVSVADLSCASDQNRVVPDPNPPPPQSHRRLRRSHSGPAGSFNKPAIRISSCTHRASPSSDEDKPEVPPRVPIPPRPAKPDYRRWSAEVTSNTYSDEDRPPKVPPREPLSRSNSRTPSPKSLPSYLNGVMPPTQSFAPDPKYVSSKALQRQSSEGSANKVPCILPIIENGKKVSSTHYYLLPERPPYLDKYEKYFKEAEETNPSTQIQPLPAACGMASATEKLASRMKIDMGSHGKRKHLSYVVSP

[2] = biological target: T1, Mig6, endogenous in primary mammary epithelial cells (mouse (endogenous in pMECs)); test: co-IP; endogenous Mig6 immunopurified from pMECs cultured in the presence or absence of EGF for 2 hr (with or without nilotinib); immunoblotting for c-Abl or EGFR

binding [1] | binding [2] | Substance
no binding | binds | EGFR, endogenous in primary mammary epithelial cells (from UniProt Q01279 25-1210) (receptor)
 | binds | c-Abl, endogenous in primary mammary epithelial cells (from UniProt P00520 1-1123) (enzyme)
